Some entries share one result that the patent states for a list of compounds.
How the values were obtained:
Assay type in all cases: cell-based
[1] = tested on: Strep. agalactiae ATCC13813; experiment: Deferred antagonism assay; conditions: producing strain, diameter of zone minus 5 mm, average of duplicates
Description: (§1) Deferred antagonism assays were performed by replicating strains on GM17 or GM17 x-gal agar plates and allowing them to grow overnight before overlaying with either GM17/BHI/TS/MH agar (0.75% w/v agar) seeded with the appropriate indicator strain. Zone size was calculated as the diameter of the zone of clearing minus the diameter of bacterial growth (5 mm) For higher throughput screening of N20PXX, XM21VX, XXK22T and XXX banks deferred antagonism assays were performed by replicating strains using a 96 pin replicator (Boekel) or spotting 5 μl of a fresh overnight culture on GM17 agar plates and allowing them to grow overnight. […] Additional sets of indicators were employed to further assess/reassess the bioactivity of a number of strains. […] For well-diffusion assays molten agar was cooled to 48° C. and seeded with the appropriate indicator strain. The inoculated medium was rapidly transferred into sterile Petri plates in 50 ml volumes, allowed to solidify and dried. Wells (4.6 mm in diameter) were then made in the seeded plates. Purified nisin and mutant nisins were resuspended in 0.005% acetic acid, serially diluted, 50 μl volumes were dispensed into the aforementioned wells and the plates incubated at 37° C. overnight. Bioactivity was expressed as arbitrary units/ml (AU/ml) and calculated as the reciprocal of the highest dilution that gave a definite zone multiplied by the conversion factor (i.e. 20 when 50 μl was used) (Ryan et al., 1996).
(§2) As a consequence of the enhanced activities of K22T and K22S, a more in-depth investigation of this region was carried out. Saturation mutagenesis was undertaken to create a bank of nisin A hinge derivatives containing the vast majority of possible amino acid substitutions for each position. Although pPTPL was used successfully for random mutagenesis, its relatively large size of approx 10.5 kb was considered unsuitable for the complete plasmid PCR amplification approach utilized for saturation mutagenesis. A smaller (approx 6 kb) E. coli-L. lactis shuttle vector pCI372 was considered to be potentially more useful. Its suitability with respect to the in trans expression of nisA was confirmed by the ability of pDFO5 to restore the nisin positive phenotype. Saturation mutagenesis was performed on each codon using pDF05 and oligonucleotides (Table 5) that replace the specific codon with a NNK triplet, potentially encoding all 20 standard amino acids. Following complete plasmid amplification and introduction into the intermediate Top10 host, sequence analysis of a pooled bank of pDF05 derivatives confirmed randomization. Introduction of these variants into L. lactis NZ9800 allowed the expression of mutant nisin A peptides for further analysis. […] 46 residue conversions were isolated. All strains, regardless of bioactivity, were assessed with a view to comprehensively assessing the consequences of each individual hinge alteration.
(§3) Values are an average of duplicate experiments and represent zone size (diameter of zone minus diameter of bacterial growth (i.e. 5 mm) relative to that of the NZ9800 pCI372nisA control. X=Mutants not identified.

Sequences of proteins named here, by UniProt entry; tags and fusion partners are left off. A change or cut given only in a name is not applied to a line headed by its entry.
UniProt P13068: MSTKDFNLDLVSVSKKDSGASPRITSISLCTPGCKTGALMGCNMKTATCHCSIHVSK

[2] = tested on: Staph. aureus DPC5245; experiment: Deferred antagonism assay; conditions: producing strain; diameter of zone minus 5 mm; average of duplicates; St. aureus DPC5245
Description: as §1, §2, §3

[3] = tested on: Staph. aureus ST528 (MRSA); experiment: Deferred antagonism assay; conditions: producing strain, diameter of zone minus diameter of bacterial growth (5 mm), average of duplicates
Description: as §1, §2, §3

[4] = tested on: indicator strains; experiment: Deferred antagonism assays, various indicator strains (summary); conditions: Staph. aureus ST528, DPC5245 and Strep. agalactiae ATCC 13813 taken together
Description: as §1, with “Purified nisin and mutant nisins were resuspended in 0.005% acetic acid, serially diluted, 50 μl volumes were dispensed into the aforementioned wells and the plates incubated at 37° C. overnight.” left out

| Substance | zone size relative to that of the NZ9800 pCI372nisA control [1] | zone size relative to that of the NZ9800 pCI372nisA control [2] | zone size relative to that of the NZ9800 pCI372nisA control [3] | relative bioactivity against the indicators of Table 6 [4] |
| --- | --- | --- | --- | --- |
| M21W: nisin A derivative, hinge substitution M21W (ITSISLCTPGCKTGALMGCNWKTATCHCSIHVSK; Lantibiotic nisin-A; UniProt P13068 24-57, looked up, variant M21W) | 0-39% | 14-36% | 5-14.5% |  |
| N20W: nisin A derivative, hinge substitution N20W (ITSISLCTPGCKTGALMGCWMKTATCHCSIHVSK; Lantibiotic nisin-A; UniProt P13068 24-57, looked up, variant N20W) | 0-39% |  | 5-14.5% |  |
| NisinA K22A (ITSISLCTPGCKTGALMGCNMATATCHCSIHVSK; Lantibiotic nisin-A; UniProt P13068 24-57, looked up, variant K22A) [nisin A derivative, hinge substitution K22A] |  |  |  | 105-137% |
| NisinA M21A (ITSISLCTPGCKTGALMGCNAKTATCHCSIHVSK; Lantibiotic nisin-A; UniProt P13068 24-57, looked up, variant M21A) [nisin A derivative, hinge substitution M21A] |  |  |  | 105-137% |
